Cleaved PARP after 72 h of treatment

Drug key:
FK866 (0.05 µM): O=C(/C=C/c1cccnc1)NCCCCC1CCN(C(=O)c2ccccc2)CC1
GW9662 (10 µM): O=C(Nc1ccccc1)c1cc([N+](=O)[O-])ccc1Cl
bexarotene (10 µM): C=C(c1ccc(C(=O)O)cc1)c1cc2c(cc1C)C(C)(C)CCC2(C)C
NVP-TAE684 (0.4 µM): COc1cc(N2CCC(N3CCN(C)CC3)CC2)ccc1Nc1ncc(Cl)c(Nc2ccccc2S(=O)(=O)C(C)C)n1
crizotinib (1 µM): C[C@@H](Oc1cc(-c2cnn(C3CCNCC3)c2)cnc1N)c1c(Cl)ccc(F)c1Cl
ABT-263 (2 µM): CC1(C)CCC(c2ccc(Cl)cc2)=C(CN2CCN(c3ccc(C(=O)NS(=O)(=O)c4ccc(N[C@H](CCN5CCOCC5)CSc5ccccc5)c(S(=O)(=O)C(F)(F)F)c4)cc3)CC2)C1
midostaurin (0.4 µM): CO[C@@H]1[C@H](N(C)C(=O)c2ccccc2)C[C@H]2O[C@]1(C)n1c3ccccc3c3c4c(c5c6ccccc6n2c5c31)C(=O)NC4
KU-55933 (5 µM): O=c1cc(-c2cccc3c2Sc2ccccc2S3)oc(N2CCOCC2)c1
selumetinib (0.075 µM): Cn1cnc2c(F)c(Nc3ccc(Br)cc3Cl)c(C(=O)NOCCO)cc21
tamatinib (2 µM): COc1cc(Nc2ncc(F)c(Nc3ccc4c(n3)NC(=O)C(C)(C)O4)n2)cc(OC)c1OC
SNS-314 (0.004 µM): O=C(Nc1cccc(Cl)c1)Nc1ncc(CCNc2ncnc3ccsc23)s1
XAV939 (10 µM): Oc1nc(-c2ccc(C(F)(F)F)cc2)nc2c1CSCC2
PD173074 (0.5 µM): CCN(CC)CCCCNc1ncc2cc(-c3cc(OC)cc(OC)c3)c(NC(=O)NC(C)(C)C)nc2n1
vincristine (0.0005 µM): CC[C@]1(O)C[C@H]2CN(CCc3c([nH]c4ccccc34)[C@@](C(=O)OC)(c3cc4c(cc3OC)N(C=O)[C@H]3[C@@](O)(C(=O)OC)[C@H](OC(C)=O)[C@]5(CC)C=CCN6CC[C@]43[C@@H]65)C2)C1
embelin (6 µM): CCCCCCCCCCCC1=C(O)C(=O)C=C(O)C1=O
pazopanib (2 µM): Cc1ccc(Nc2nccc(N(C)c3ccc4c(C)n(C)nc4c3)n2)cc1S(N)(=O)=O
indole-3-carbinol (4 µM): OCc1c[nH]c2ccccc12
JZL184 (5 µM): O=C(Oc1ccc([N+](=O)[O-])cc1)N1CCC(C(O)(c2ccc3c(c2)OCO3)c2ccc3c(c2)OCO3)CC1
dovitinib (0.5 µM): CN1CCN(c2ccc3nc(-c4c(N)c5c(F)cccc5[nH]c4=O)[nH]c3c2)CC1
MK-1775 (0.1 µM): C=CCn1c(=O)c2cnc(Nc3ccc(N4CCN(C)CC4)cc3)nc2n1-c1cccc(C(C)(C)O)n1
tipifarnib (0.05 µM): Cn1cncc1[C@@](N)(c1ccc(Cl)cc1)c1ccc2c(c1)c(-c1cccc(Cl)c1)cc(=O)n2C
CP-690550 (5 µM): C[C@@H]1CCN(C(=O)CC#N)C[C@@H]1N(C)c1ncnc2[nH]ccc12
GSK0660 (5 µM): COC(=O)c1sccc1S(=O)(=O)Nc1ccc(Nc2ccccc2)cc1OC

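Human melanoma cells were exposed to a single drug for 72 h in 1,536-well plates and read by automated microscopy after fixing and staining. The read-out is the fraction of cleaved-PARP-positive nuclei, in % of that fraction in the DMSO control; 200 means twice the control level of this apoptosis marker. Every drug was used at one fixed concentration, the higher of two screened. The file gives one value for each drug and line, without errors, so small differences may be noise. Basal and induced levels differ widely between cell lines.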 An unselected part of the screen is shown.

Drug	WM451Lu
GSK0660	123
GW9662	242
ABT-263	40.7
embelin	94.7
tamatinib	44.3
XAV939	36.5
vincristine	161
PD173074	148
MK-1775	39.0
indole-3-carbinol	59.5
SNS-314	105
CP-690550	51.2
KU-55933	107
tipifarnib	149
dovitinib	171
crizotinib	132
FK866	71.7
JZL184	33.6
pazopanib	92.2
midostaurin	35.2
selumetinib	456
bexarotene	80.3
NVP-TAE684	203

Once more, the final 2:

| Drug | WM451Lu |
|---|---|
| bexarotene | 80.3 |
| NVP-TAE684 | 203 |

Data from the primary screen of doi:10.1371/journal.pone.0140310, rounded.